Record: PubChem BioAssay AID1259405 (NCATS, 2018)

Screen: 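Mouse-designed siRNAs used to find CHO productivity engineering targets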 (primary screen)
Cell system: Chinese hamster CHO-K1 ovary cells with stable secreted eGFP expression
Reagents: single siRNA against mouse genes, 0.8 pmol siRNA per well (2 µl of 400 nM stock)
Duration: 3 days
Detection: 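Percent of the per-plate non-targeting control median for intracellular GFP per well by laser scanning cytometry and for cell viability by ATP luminescence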
Reading the numbers: GFP, % of control: higher = more GFP per well, higher productivity; viability (ATP), % of control: higher = more viable cells (more ATP)
Hit rule: 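a knock-down is called active if GFP reaches 120% or more of non-targeting control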
In all, the deposit lists about 50,000 reagents; shown is a part drawn at random. About 4,000 of all reagents (8%) count as active. 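Mouse siRNA library applied to hamster cells; one well for each siRNA.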

Target gene | PubChem SID | GFP, % of control | viability (ATP), % of control | call
Or5p6 | SID363544475 | 64.5 | 50 | inactive
Or5p6 | SID363550803 | 79.8 | 86.1 | inactive
Or5p6 | SID363557352 | 87.9 | 68.3 | inactive
F2rl1 | SID363571374 | 78.9 | 63.4 | inactive
F2rl1 | SID363571726 | 77.7 | 76.7 | inactive
F2rl1 | SID363572078 | 73 | 84 | inactive
Fignl1 | SID363545729 | 41.5 | 25.2 | inactive
Fignl1 | SID363549242 | 36.3 | 59.2 | inactive
Fignl1 | SID363563048 | 57.8 | 43 | inactive
Bex3 | SID363562073 | 63.3 | 43.8 | inactive
Bex3 | SID363567211 | 83.9 | 99.9 | inactive
Bex3 | SID363584568 | 106 | 58.2 | inactive
Mfsd11 | SID363543895 | 86.9 | 81 | inactive
Mfsd11 | SID363551631 | 58.2 | 74 | inactive
Mfsd11 | SID363559236 | 65 | 64 | inactive

Entries listed so far whose target name starts with F or f:
Target gene | PubChem SID | GFP, % of control | viability (ATP), % of control | call
F2rl1 | SID363571374 | 78.9 | 63.4 | inactive
F2rl1 | SID363571726 | 77.7 | 76.7 | inactive
F2rl1 | SID363572078 | 73 | 84 | inactive
Fignl1 | SID363545729 | 41.5 | 25.2 | inactive
Fignl1 | SID363549242 | 36.3 | 59.2 | inactive
Fignl1 | SID363563048 | 57.8 | 43 | inactive

Next results:
Target gene | PubChem SID | GFP, % of control | viability (ATP), % of control | call
2010106E10Rik | SID363543559 | 71.8 | 80 | inactive
2010106E10Rik | SID363553052 | 83.2 | 83.3 | inactive
2010106E10Rik | SID363558900 | 94.4 | 103 | inactive
H2-M2 | SID363553744 | 49.8 | 62.3 | inactive
H2-M2 | SID363561701 | 180 | 85.6 | active
H2-M2 | SID363565439 | 80 | 76.9 | inactive
Or5m10b | SID363544710 | 84.4 | 82.2 | inactive
Or5m10b | SID363551038 | 50.2 | 77.4 | inactive
Or5m10b | SID363557587 | 52.5 | 75 | inactive
Spp2 | SID363555428 | 76.8 | 60.5 | inactive
Spp2 | SID363564089 | 84.5 | 44.1 | inactive
Spp2 | SID363587635 | 87.1 | 105 | inactive
Crtap | SID363553780 | 58.8 | 68.5 | inactive
Crtap | SID363561737 | 96.8 | 97 | inactive
Crtap | SID363565475 | 80.4 | 84.4 | inactive
Asb9 | SID363546503 | 119 | 71.8 | inactive
Asb9 | SID363548259 | 56.1 | 64.2 | inactive
Asb9 | SID363560437 | 75.6 | 65.1 | inactive
Plod2 | SID363544255 | 20.2 | 17.9 | inactive
Plod2 | SID363550583 | 75.3 | 62.9 | inactive
Plod2 | SID363557132 | 87.2 | 101 | inactive
